Experimental data as given in PMC9781217, “Discovery of Novel and Selective G-Protein Coupled Receptor 120 (GPR120) Agonists for the Treatment of Type 2 Diabetes Mellitus” (Molecules, 2022).

Tests used:
DIO mice = test: Anti-hyperglycemic effects (OGTT, insulin) in DIO mice; format: in vivo, C57BL/6 mice; conditions: 20 mg/kg oral, glucose 2 g/kg
Experimental: Blood samples were collected with retro-orbital sinus puncture, and glucose levels were measured in accordance with the OGTT in normal mice. Plasma insulin levels were measured using a mouse insulin RIA kit (Beijing North Institute of Biological Technology, Beijing, China).

[1] = stated in introduction, ref not given; cited from earlier work
[2] = Pharmacokinetic analysis in C57BL/6 mice; conditions: male, C57BL/6, mouse, in vivo, po, 10 mg/kg

Cc1ccc(-c2ccc(F)cc2COc2ccc(CCC(=O)O)cc2)cc1 [TUG-891, reference compound]
glucose AUC0–120 min (DIO mice): significantly lower than that of vehicle-treated mice
half-life in vivo [1]: short half-life
plasma clearance in vivo [1]: high plasma clearance
AUC [2]: 1410 ± 158 ng·h/mL
Cmax [2]: 1890 ± 255 ng/mL
half-life [2]: 36 ± 12 min
